Record: PubChem BioAssay AID1508588 (Peter MacCallum Cancer Centre, 2020)

Aim: 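Knock-downs boosting vemurafenib effects on melanoma cell growth or lactate release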 (primary screen)
Cell system: human WM266.4 melanoma cells (BRAF V600 mutant)
Reagent: siRNA pool against human genes, 40 nM
Time to read-out: 96 h from transfection to read-out
Challenge: vemurafenib 300 nM (about IC25), added 48 h after transfection, for 48 h; comparison arm got DMSO vehicle only
Detection: 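Cell gain (DAPI nuclei at end minus before drug, mean of two replicates) and medium lactate by absorbance per cell, both as ratio to non-targeting siRNA, also grouped into fold-change classes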
Scale: cell gain with vemurafenib: higher = more cell gain than with non-targeting siRNA; lactate per cell with vemurafenib: higher = more lactate made per cell
Call rule: 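Enhancement is called by pairing each knock-down's vehicle-arm and drug-arm fold-change classes for viability or glycolysis; which class combinations qualify is not given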
Meaning of the calls: active = enhances vemurafenib effect; inactive = no enhancement seen
Here is an unselected part of about 18,000 reagents. 790 of them (4.4%) were called active. 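Calls rest on a combination of fold-change classes in drug and vehicle arms, not all shown here.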

gene	cell gain with vemurafenib	lactate per cell with vemurafenib	outcome
ZP4 (zona pellucida glycoprotein 4)	0.63	0.63	inactive
PRELID1 (PRELI domain containing 1)	0.92	0.74	inactive
TLR10 (toll like receptor 10)	0.38	1.08	inactive
IRGQ (immunity related GTPase Q)	0.58	2.31	inactive
FERD3L (Fer3 like bHLH transcription factor)	0.68	0.66	inactive
DNAH11 (dynein axonemal heavy chain 11)	0.92	0.77	inactive
GABRG3 (gamma-aminobutyric acid type A receptor subunit gamma3)	0.22	2.63	inactive
SOX30 (SRY-box transcription factor 30)	0.54	0.96	inactive
MBOAT2 (membrane bound glycerophospholipid O-acyltransferase 2)	0.91	0.79	inactive
ATRAID (all-trans retinoic acid induced differentiation factor)	0.5	0.71	inactive
BAHD1 (bromo adjacent homology domain containing 1)	1.07	0.79	inactive
B9D1 (B9 domain containing 1)	0.51	1.15	inactive
MRPS28 (mitochondrial ribosomal protein S28)	0.76	0.86	inactive
RSBN1L (round spermatid basic protein 1 like)	0.81	0.98	inactive
RPL19P9 (ribosomal protein L19 pseudogene 9)	-0.04	1.4	inactive
COMMD10 (COMM domain containing 10)	0.92	0.29	inactive
CHN1 (chimerin 1)	0.41	0.94	inactive
KRT6A (keratin 6A)	0.15	1.82	inactive
CST7 (cystatin F)	0.1	1.25	inactive
KRT34 (keratin 34)	0.55	1.02	inactive
GABRR3 (gamma-aminobutyric acid type A receptor subunit rho3)	0.33	1.43	inactive
RALGPS1 (Ral GEF with PH domain and SH3 binding motif 1)	1.04	1.02	inactive
SRGN (serglycin)	0.79	1.18	inactive
TWIST2 (twist family bHLH transcription factor 2)	0.8	1.33	inactive
KRTAP5-1 (keratin associated protein 5-1)	0.71	0.93	inactive
TMCO2 (transmembrane and coiled-coil domains 2)	0.34	0.89	inactive
TMCC2 (transmembrane and coiled-coil domain family 2)	0.94	1.04	inactive
OR5M11 (olfactory receptor family 5 subfamily M member 11)	0.41	1.37	inactive
RABL2B (RAB, member of RAS oncogene family like 2B)	0.17	1.44	inactive
CCDC125 (coiled-coil domain containing 125)	0.41	0.46	inactive
TENM2 (teneurin transmembrane protein 2)	0.89	0.43	inactive
ARHGAP11B (Rho GTPase activating protein 11B)	0.63	0.7	inactive
TRAPPC8 (trafficking protein particle complex subunit 8)	0.4	0.42	active
SBF1 (SET binding factor 1)	1.18	0.72	inactive

Records listed so far with an active call, once more:
gene	cell gain with vemurafenib	lactate per cell with vemurafenib	outcome
TRAPPC8 (trafficking protein particle complex subunit 8)	0.4	0.42	active
